# According to patent US10342853B2, “Leptin active peptide having D helix region mutations, coding gene thereof, and application thereof” (SHANGHAI YUANXIN BIOCHEMICAL SCIENCE AND TECHNOLOGY CO. LTD., priority 2015, dated 2019):
# At least one structure is not confirmed: it was looked up by name or label, or the drawing left a doubt.
# Test system: 3T3-L1 preadipocyte line
# Experiment: In-vitro lipid-lowering (adipocyte-degrading) activity analysis, MTT detection
# Format: cell-based
# Details: FIG. 2 mark a, P<0.05, H-LEP 10^−9M, Ros 0.5 μM
# Experimental: Lipid degradation activity of the synthesized leptin active peptide having helix D region mutation is analyzed on a cellular level by taking a 3T3-L1 preadipocyte line as a model. Specific operations are as follows:
# b: an early differentiation stage D0-D2 (0-2nd day of induced differentiation); and
# c: a mature adipocyte stage D9 (the 9th day of induced differentiation);
# a. leptin active peptide having helix D region mutation (PEP-D): diluted to 10^−3M with purified water and preserved at −20 degree C. for later use. After an experiment is started, working concentrations have 3 concentration gradients, that is, 10^−6M, 10^−9M and 10^−11M;
# b. positive control. […]
# d. negative control (Control): equivalent quantity of PBS […]
# ii, when culturing to 45 hours (that is, 3 hours before the end of drug treatment), taking out the plate a, and measuring MTT (preadipocytes). Specific operations: adding 20 μL of 5 mg/mL of MTT solution into each well, continuously standing and culturing at 37 degree C. in the 5% CO2 incubator for 3 hours, sucking and discarding the culture solution in the wells, adding 150 μL of DMSO into each well, horizontally shaking for 10 min, detecting a light absorption value at 492 nm by a microplate reader, and drawing a growth curve; […]
smiles,measurement,value
"CN(CCOc1ccc(CC2SC(=O)NC2=O)cc1)c1ccccn1 (stereo not shown) [Ros, Rosiglitazone, reference compound]","adipocyte lysis activity vs. negative control (Control, PBS)",obviously better than that of the negative control
